Several values for one entry are separate records, joined by “and”; a condition that tells them apart may be missing. Equal values may be shown once. The campaign covered roughly 320,000 compounds. About 22,000 (6.9%) were called active. The shares of active, inactive and inconclusive entries below differ from those in the screen. The call rests on the fitted dose curve; in most records, active means well fitted inhibition curve with a large enough effect; inconclusive means small, poorly fitted or top-dose-only effect, or another doubt; inactive means no such curve, though single readings can be large or run the other way. A potency beside an inconclusive call is a rough fit, not a confirmed value.
test: Primary qHTS for delayed death inhibitors of the malarial parasite plastid, 96 hour incubation; conditions: P. falciparum luciferase reporter growth; series mostly up to 28.7 µM
Method in brief: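 P. falciparum expressing integrated firefly luciferase grown in erythrocytes (2% hematocrit, 0.05% parasitemia final) with compounds for 96 hours at 37 C, 5% CO2. Growth inhibition read as loss of luminescence after adding luciferase detection reagent.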
Potency means the concentration at half of the fitted maximal effect.

SMILES	Potency
CCOC(=O)c1c(C)[nH]c(C)c1S(=O)(=O)N1c2ccccc2CC1C (centres undefined)	inactive
Cc1ccc(-c2c[n+](CC(=O)Nc3ccccc3C)c3n2CCC3)cc1	active: 6.57 µM
C[C@@H]1CN(C(=O)c2nc3ccc(Cl)cn3c2CN2CCc3sccc3C2)C[C@H](C)O1	inconclusive: 0.0033 µM [inhibitor, full curve, poor fit]
CCN(CC)S(=O)(=O)c1ccc(N2CCN(S(=O)(=O)c3ccc4c(c3)OCCO4)CC2)nc1	inconclusive: 18.5 µM [inhibitor, single point]
c1ccc2c(c1)N1CCCN=C1N2CCN1CCCCC1	inactive
Cc1cc(C)c2cc(CN(Cc3nnnn3Cc3ccc(F)cc3)C3CCCC3)c(=O)[nH]c2c1	inconclusive: 20.8 µM [inhibitor, partial curve, poor fit]
Cc1ccccc1CN1CCN(CC(=O)NCc2ccccc2)CC1	inactive
Cc1cc(C)n2nc(SCC(=O)Nc3ccccc3F)nc2n1	inactive
COc1ccc(NC(=O)C(c2ccc(C)cc2)N(C)C(=O)c2cnccn2)cc1 (centres undefined)	inconclusive: 5.86 µM [inhibitor, partial curve, poor fit]
Cc1nc2nc(SCC(=O)NCCCN3CCOCC3)nn2c(C)c1Cc1ccccc1	active: 3.29 µM
COc1ccc(-c2noc(Cc3ccccc3OC)n2)cc1	active: 13.1 µM
CC1=CC(C)(C)N=C(Nc2ccc(C)cc2)S1	active: 10.4 µM
COc1cccc(-c2csc(N3CCN(CC(=O)NNC(=O)c4ccc(Cl)cc4)CC3)n2)c1	inconclusive: 14.7 µM [inhibitor, single point]
CCOC(=O)c1ccccc1NC1c2ccccc2C(=O)N1c1cc(C)ccn1 (centres undefined)	inconclusive: 11.7 µM [inhibitor, single point]
COC(=O)c1ccc(Cn2cc([N+](=O)[O-])cn2)cc1	inactive
C[C@H](NC(=O)C1CCN(S(=O)(=O)c2ccccc2)CC1)C(=O)NCc1ccccn1	inconclusive: 18.5 µM [inhibitor, single point]
CCc1cccc(Nc2cnn(C34C[C@@H]5C[C@@H](CC(CC(=O)O)(C5)C3)C4)c(=O)c2Cl)c1	inactive
Cc1ccccc1N1CCN(C2CCCN(C(=O)c3ccnn3C)C2)CC1 (centres undefined)	inactive
Cc1ccc(CCNC(=O)C23C[C@H]4C[C@@H](C2)CC(n2nnc(C)n2)(C4)C3)cc1	inactive
COc1ccccc1NC(=O)Cn1nc(-c2ccc(Cl)cc2)c2ccccc2c1=O	inconclusive: 11.7 µM [inhibitor, single point]
Cc1ccc(S(=O)(=O)N2CCN(C(=O)c3ccc(N4CCCC4)c([N+](=O)[O-])c3)CC2)cc1	active: 8.28 µM
COC(=O)c1ccc(OC(C)C(=O)c2ccc(C)cc2)cc1 (centres undefined)	inconclusive: 0.0041 µM [inhibitor, full curve, poor fit]
CCCCc1cc(=O)oc2cc(C)cc(OCC(=O)NCC3CCC(C(=O)O)CC3)c12 (centres undefined)	inconclusive: 0.828 µM [inhibitor, full curve]
Cc1ccccc1Cn1c2ccccc2c2cn[nH]c(=O)c21	active: 10.4 µM
COc1ccc(S(=O)(=O)N2CCCCC2)cc1NC(=O)c1ccco1	inconclusive: 18.5 µM [inhibitor, partial curve, poor fit]

In the list so far, these have an NH in an aromatic ring:
SMILES	Potency
CCOC(=O)c1c(C)[nH]c(C)c1S(=O)(=O)N1c2ccccc2CC1C (centres undefined)	inactive
Cc1cc(C)c2cc(CN(Cc3nnnn3Cc3ccc(F)cc3)C3CCCC3)c(=O)[nH]c2c1	inconclusive: 20.8 µM [inhibitor, partial curve, poor fit]
Cc1ccccc1Cn1c2ccccc2c2cn[nH]c(=O)c21	active: 10.4 µM

More structures.

SMILES	Potency
Cc1noc(C(=O)NCC2CCCO2)c1Cl (centres undefined)	inactive
COc1ccc(S(=O)(=O)NCCc2nnc3ccc(SCC(=O)Nc4nc(C)cs4)nn23)cc1	inconclusive: 10.4 µM [inhibitor, single point]
O=C(N/N=C/c1ccccc1)NC1CCCCC1	inactive
O=C(Oc1ccc2cccc(OC(=O)N3CCOCC3)c2c1)N1CCOCC1	inconclusive: 0.0928 µM [inhibitor, full curve, poor fit]
COc1cccc2c(C)cc(N3CCCCCC3)nc12	inconclusive: 11.7 µM [inhibitor, partial curve, poor fit]
CCN1C(=O)[C@H]2[C@@H](c3ccc(C)cc3)N3C(=O)N(c4ccccc4)C(=O)[C@@]3(Cc3ccc(Cl)cc3)[C@H]2C1=O	inconclusive: 11.7 µM [inhibitor, single point]
Cc1ccc(NC(=O)CSc2nc3ccccc3c(=O)n2CCCN2CCCCC2)cc1Cl	inconclusive: 13.1 µM [inhibitor, partial curve, poor fit]
Cc1sc2nc3c(SC(C)C(=O)O)cc(C(=O)c4ccccc4O)cn3c(=O)c2c1C (centres undefined)	inconclusive: 18.5 µM [inhibitor, single point]
O=C(c1cc(F)c(F)cc1Cl)N1CCCc2ccccc21	inconclusive: 10.4 µM [inhibitor, single point]
CCCC1CC(CSC(=N)N)OC1=O (centres undefined)	inactive
O=C(CCc1nnc2ccc(N3CCCC3)nn12)Nc1ccc(F)cc1F	inactive
Cc1ccc(C)c(C2=NNC(=NCc3ccccc3)SC2)c1	inconclusive: 1.85 µM [inhibitor, single point]
CN(CC(=O)Nc1cccc(F)c1)C(=O)c1cccc(N2C(=O)CCC2=O)c1	inconclusive: 10.4 µM [inhibitor, single point]
OCCN1CCN(C2Cc3cc(Cl)ccc3Sc3ccc(Cl)cc32)CC1 (centres undefined) (tested in a mixture with another compound)	inconclusive: 18.5 µM [inhibitor, single point]
COc1ccc(C2(CNC(=O)C(=O)Nc3ccc(C)cc3)CCOCC2)cc1	inconclusive: 10.4 µM [inhibitor, single point]
O=C(COC(=O)c1cccc([N+](=O)[O-])c1)NNC(=O)c1cccs1	inactive
Oc1ccc(Cl)cc1CNc1ccccn1	active: 10.4 µM
COC(=O)c1ccc(NS(=O)(=O)c2c(C)[nH]c(C)c2C(=O)N2CCCC2)cc1	inactive
COc1cc(C(=O)Nc2ccc(-c3nc4cc(C)ccc4o3)c(O)c2)cc(OC)c1OC	inconclusive: 13.1 µM [inhibitor, partial curve, poor fit]
O=C(Nc1ccc(Cl)c(S(=O)(=O)N2CCCCC2)c1)c1ccncc1	active: 7.38 µM
COc1cccc(C(=O)Nc2cc(C(F)(F)F)ccc2Cl)c1	inactive
CC(C)Oc1ccc(C(=O)Nc2ccc(N3CCCC3)cc2)cc1	active: 9.28 µM
Cc1ccc(OCc2nc(-c3ccccn3)no2)cc1	inactive
COc1ccc(C(C(=O)NC2CCCC2)N(C(=O)c2ccco2)c2ccc3c(c2)OCO3)cc1OC (centres undefined)	inconclusive: 18.5 µM [inhibitor, single point]
CCOC(=O)C1CCCN(Cc2ccc(OCc3ccccc3)c(OC)c2)C1 (centres undefined)	active: 13.1 µM

SMILES	Potency
CCOC(=O)C1C(=O)C=C(Nc2ccccc2F)CC1c1ccccc1 (centres undefined)	inactive
COc1ccc2cc3[n+](cc2c1OC)CCc1cc2c(cc1-3)OCO2	active: 33.8 nM and active: 65.7 nM and active: 147 nM
CC1CCN(C(=O)Cn2cc(SCC(=O)NCC3CCCO3)c3ccccc32)CC1 (centres undefined)	inconclusive: 10.4 µM [inhibitor, single point]
CCC1CCCCN1Cc1ccc(N)cc1 (centres undefined)	inactive
CC(=O)N1CCc2cc(S(=O)(=O)CCC(=O)NCc3ccc(C)o3)ccc21	inactive
CCOc1ccc(-n2c(C)c(C(C)=O)c3cc(OCC(N)=O)ccc32)cc1	inactive
CC(=O)Nc1cc2nn(-c3ccccc3)nc2cc1C	active: 13.1 µM
CCCCn1c(=O)[nH]c(=O)c2c(C(=O)OCC)cc(-c3cccs3)nc21	inactive
CC(C)C(OC(=O)c1cccs1)C(=O)NCc1ccc2c(c1)OCO2 (centres undefined)	inactive
COc1ccccc1/C=N/N1CCN(c2ccc(Cl)cc2)CC1	inactive
COc1ccc(OCCNc2cc(N3CCOCC3)ccc2[N+](=O)[O-])cc1	inconclusive: 2.33 µM [inhibitor, full curve, poor fit]
CC(=O)N1CCN(S(=O)(=O)c2cccc(C(=O)Nc3ccc4c(c3)OCO4)c2)CC1	inconclusive: 4.15 µM [inhibitor, partial curve, poor fit]
CCc1ccc2nc(N(CCCN(C)C)C(=O)c3ccc(S(=O)(=O)N4CCc5ccccc5C4)cc3)sc2c1	inconclusive: 18.5 µM [inhibitor, single point]
O=C(C1=C[C@H](c2coc3ccccc3c2=O)C[C@H](OCc2ccc(CO)cc2)O1)N1CCOCC1	inactive
C=CCn1c(SCC(=O)c2cccs2)nnc1-c1cccc(OC)c1	inactive
COc1ccc(CCNC(=S)N2CCN(S(=O)(=O)c3ccc(F)cc3)CC2)cc1	active: 2.94 µM
Cc1c(Cl)cccc1N/C(SCC(=O)N1CCCCCC1)=C(/C#N)c1nc2ccccc2s1	active: 1.47 µM
CC1CCN(C(=O)/C(=C\c2ccccc2)NC(=O)c2ccccc2)CC1	inconclusive: 10.4 µM [inhibitor, single point]
COc1ccc(CCC(=O)Nc2ccc3c(c2)OCO3)cc1	inconclusive: 10.4 µM [inhibitor, partial curve]
O=C1NC(=O)C2(CCCc3ccccc32)N1 (centres undefined)	inactive
CCCc1nnc(NC(=O)CCC(=O)NCc2ccccc2OC)s1	inconclusive: 0.522 µM [inhibitor, full curve]
N=c1oc2ccc(Br)cc2cc1C(=O)NC1CCCCCC1	inconclusive: 18.5 µM [inhibitor, single point]
COc1ccccc1NS(=O)(=O)c1cccc(-n2c(O)c(C=Nc3ccccc3C(=O)O)c3ccccc3c2=O)c1	inactive
O=C(NCCc1ccccn1)c1cccc(S(=O)(=O)N2CCc3ccccc32)c1	inconclusive: 18.5 µM [inhibitor, single point]
